Results: patent US20040053310, “Exhaustive selection of RNA aptamers against complex targets” (published 2004)
For part of these data: A weaker result is weaker than the reference pair of the same experiment. Protein sequences can lack the tags named with them. For part of these data: Results from cells or extracts need not show a direct contact.

Key:
heat shock factor (HSF) = molecular target: T1, heat shock factor (HSF) (UniProt P22813); assay: EMSA; details: 100 nM HSF, purified recombinant protein
T1 sequence (looked up, limits assumed): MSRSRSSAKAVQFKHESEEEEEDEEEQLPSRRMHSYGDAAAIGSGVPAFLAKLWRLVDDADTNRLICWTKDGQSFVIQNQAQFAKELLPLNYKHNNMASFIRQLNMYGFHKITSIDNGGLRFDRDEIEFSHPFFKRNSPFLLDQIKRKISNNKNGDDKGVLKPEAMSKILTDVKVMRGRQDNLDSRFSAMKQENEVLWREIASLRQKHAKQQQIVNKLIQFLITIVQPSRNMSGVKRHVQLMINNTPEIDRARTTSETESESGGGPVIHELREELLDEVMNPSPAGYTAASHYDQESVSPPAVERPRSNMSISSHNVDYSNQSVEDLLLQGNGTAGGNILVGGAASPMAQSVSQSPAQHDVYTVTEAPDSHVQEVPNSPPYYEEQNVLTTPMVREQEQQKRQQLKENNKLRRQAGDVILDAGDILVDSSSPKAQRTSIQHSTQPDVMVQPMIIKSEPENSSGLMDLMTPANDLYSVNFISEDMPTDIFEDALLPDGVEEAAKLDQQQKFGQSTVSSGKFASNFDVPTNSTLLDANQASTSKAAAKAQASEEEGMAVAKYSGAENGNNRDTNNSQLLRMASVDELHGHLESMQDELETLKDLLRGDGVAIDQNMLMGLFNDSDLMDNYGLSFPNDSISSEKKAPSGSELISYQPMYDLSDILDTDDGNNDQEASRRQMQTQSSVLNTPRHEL

bvHSF (untagged HSF) = molecular target: T2, bvHSF (untagged HSF) (UniProt P22813); assay: EMSA; details: crude Sf9 extract; protein in a lysate after overexpression
T2 sequence (looked up, limits assumed): T1 sequence (looked up, limits assumed)

“GGGAGAAUUCAACUGCCAUCUAGGCAAGUAGCUAGGAGUCCUUCUCCCCUCAAAACAGAAUGGGGAGUACUACAAGCUUCUGGACUCGAU [14-2]”: binds more weakly (heat shock factor (HSF); weaker than RA1-HSF).
“GGGAGAAUUCAACUGCCAUCUAGGCAUCGCGAUACAAAAUUAAGUUGAACGCGAGUUCUCCAUCUAGUACUACAAGCUUCUGGACUCGAU [RA1-HSF (14-1)]”: binds (bvHSF (untagged HSF)).
“GGGAGAAUUCAACUGCCAUCUAGGCGGCAAGCUACGCGUCAAAUAGCAAGCACACCGAAGACACAAGUACUACAAGCUUCUGGACUCGAU [9a-1]”: binds more weakly (heat shock factor (HSF); weak affinity).
